Drawing on article PMC7774954, “Interactomic affinity profiling by holdup assay: Acetylation and distal residues impact the PDZome-binding specificity of PTEN phosphatase” (PLoS ONE, 2020), this text covers binding for 20 molecules.

Amino acid sequences for entries named in this document (tags omitted). A change or cut given only in a name is not applied to a line headed by its entry.
UniProt P60484: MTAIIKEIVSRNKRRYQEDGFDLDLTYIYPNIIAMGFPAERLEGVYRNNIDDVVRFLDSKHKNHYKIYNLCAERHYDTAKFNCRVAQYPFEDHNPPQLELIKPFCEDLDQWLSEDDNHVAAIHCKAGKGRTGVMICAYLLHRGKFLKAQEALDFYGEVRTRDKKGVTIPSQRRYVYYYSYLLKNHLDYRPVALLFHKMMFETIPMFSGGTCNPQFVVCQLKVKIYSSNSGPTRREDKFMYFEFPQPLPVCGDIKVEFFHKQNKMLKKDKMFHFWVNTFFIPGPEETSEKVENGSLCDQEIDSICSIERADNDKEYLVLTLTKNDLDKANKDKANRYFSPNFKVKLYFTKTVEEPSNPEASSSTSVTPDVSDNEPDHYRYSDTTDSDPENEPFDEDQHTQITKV

B1: PDZD2-5 (domain or fragment, UniProt O15018 2622-2706)
chain: FIVLNRKEGSGLGFSVAGGTDVEPKSITVHRVFSQGAASQEGTMNRGDFLLSVNGASLAGLAHGNVLKVLHQAQLHKDALVVIKK
B2: GRIP1-3 (domain or fragment, UniProt Q9Y3R0 252-336)
chain: LVEVAKTPGASLGVALTTSMCCNKQVIVIDKIKSASIADRCGALHVGDHILSIDGTSMEYCTLAEATQFLANTTDQVKLEILPHH
B3: FRMPD2-1 (domain or fragment, UniProt Q68DX3 775-861)
chain: RVTLKRDPHRGFGFVINEGEYSGQADPGIFISSIIPGGPAEKAKTIKPGGQILALNHISLEGFTFNMAVRMIQNSPDNIELIISQSK
B4: NHERF4-3 (domain or fragment, UniProt Q86UT5 329-412)
chain: CLHLEKGPQGFGFLLREEKGLDGRPGQFLWEVDPGLPAKKAGMQAGDRLVAVAGESVEGLGHEETVSRIQGQGSCVSLTVVDPE
B5: APBA3-1 (domain or fragment, UniProt O96018 394-480)
chain: EVHLEKRRGEGLGVALVESGWGSLLPTAVIANLLHGGPAERSGALSIGDRLTAINGTSLVGLPLAACQAAVRETKSQTSVTLSIVHC
B6: PDZD2-4 (domain or fragment, UniProt O15018 728-813)
chain: EVTLNKEPRVGLGIGACCLALENSPPGIYIHSLAPGSVAKMESNLSRGDQILEVNSVNVRHAALSKVHAILSKCPPGPVRLVIGRH
B7: APBA3-2 (domain or fragment, UniProt O96018 485-560)
chain: TAIIHRPHAREQLGFCVEDGIICSLLRGGIAERGGIRVGHRIIEINGQSVVATPHARIIELLTEAYGEVHIKTMPA
B8: GRIP1-4 (domain or fragment, UniProt Q9Y3R0 472-561)
chain: EVVLTADPVTGFGIQLQGSVFATETLSSPPLISYIEADSPAERCGVLQIGDRVMAINGIPTEDSTFEEASQLLRDSSITSKVTLEIEFDV
B9: INADL-1 (domain or fragment, UniProt Q8NI35 134-221)
chain: YIDIERPSTGGLGFSVVALRSQNLGKVDIFVKDVQPGSVADRDQRLKENDQILAINHTPLDQNISHQQAIALLQQTTGSLRLIVAREP
B10: FRMPD2-3 (domain or fragment, UniProt Q68DX3 1079-1167)
chain: EVKLKKNANGLGFSFVQMEKESCSHLKSDLVRIKRLFPGQPAEENGAIAAGDIILAVNGRSTEGLIFQEVLHLLRGAPQEVTLLLCRPP
B11: APBA2-2 (domain or fragment, UniProt Q99767 659-734)
chain: TVLIKRPDLKYQLGFSVQNGIICSLMRGGIAERGGVRVGHRIIEINGQSVVATAHEKIVQALSNSVGEIHMKTMPA
B12: GRIP1-2 (domain or fragment, UniProt Q9Y3R0 150-238)
chain: TVEVTLHKEGNTFGFVIRGGAHDDRNKSRPVVITCVRPGGPADREGTIKPGDRLLSVDGIRLLGTTHAEAMSILKQCGQEAALLIEYDV
B13: GRIP1-7 (domain or fragment, UniProt Q9Y3R0 1004-1086)
chain: KVTLYKDSDMEDFGFSVADGLLEKGVYVKNIRPAGPGDLGGLKPYDRLLQVNHVRTRDFDCCLVVPLIAESGNKLDLVISRNP
B14: NHERF4-2 (domain or fragment, UniProt Q86UT5 223-301)
chain: LCHIVKDEGGFGFSVTHGNQGPFWLVLSTGGAAERAGVPPGARLLEVNGVSVEKFTHNQLTRKLWQSGQQVTLLVAGPE
B15: GRIP1-5 (domain or fragment, UniProt Q9Y3R0 573-658)
chain: HVKLPKKHNVELGITISSPSSRKPGDPLVISDIKKGSVAHRTGTLELGDKLLAIDNIRLDNCSMEDAVQILQQCEDLVKLKIRKDE
B16: INADL-6 (domain or fragment, UniProt Q8NI35 1068-1160)
chain: IVEIFREPNVSLGISIVGGQTVIKRLKNGEELKGIFIKQVLEDSPAGKTNALKTGDKILEVSGVDLQNASHSEAVEAIKNAGNPVVFIVQSLS
B17: DFNB31-3 (domain or fragment, UniProt Q9P202 816-899)
chain: LVRVKKSAATLGIAIEGGANTRQPLPRIVTIQRGGSAHNCGQLKVGHVILEVNGLTLRGKEHREAARIIAEAFKTKDRDYIDFL
B18: NHERF3-2 (domain or fragment, UniProt Q5T2W1 134-215)
chain: RLCYLVKEGGSYGFSLKTVQGKKGVYMTDITPQGVAMRAGVLADDHLIEVNGENVEDASHEEVVEKVKKSGSRVMFLLVDKE
B19: INADL-2 (domain or fragment, UniProt Q8NI35 248-328)
chain: EVELINDGSGLGFGIVGGKTSGVVVRTIVPGGLADRDGRLQTGDHILKIGGTNVQGMTSEQVAQVLRNCGNSVRMLVARDP
B20: PDZD7-2 (domain or fragment, UniProt Q9H5P4 210-293)
chain: IVHLYTTSDDFCLGFNIRGGKEFGLGIYVSKVDHGGLAEENGIKVGDQVLAANGVRFDDISHSQAVEVLKGQTHIMLTIKETGR

Results are given in words; binding and its absence hold for the method and conditions named.

One assay concerns the target PTEN_Ac (human) (UniProt P60484). The assay is described as follows: holdup assay; biotinylated PBM peptide on streptavidin resin, biotin resin as reference; tag-PDZ at 4 uM in crude E. coli lysate, 15 min, filtrate read by capillary electrophoresis; singlicate; BI converted into KD with the mean peptide concentration back-calculated from FP (34, 28, 25, 17 uM); LogKD is -log10 of KD in M, overall uncertainty ± 0.12; cells at the column's lower value are pairs without detected binding; only the target purified.
Regarding B1, the binding entry is “no binding (tested: lower value)”.

For B2, the binding result was “no binding (tested: lower value)”.

Regarding B3, the binding result was “no binding (tested: lower value)”.

Turning to B4, the binding result is “no binding (tested: lower value)”.

Take B5: the binding entry was “no binding (tested: lower value)”.

Take B6: the binding result is “no binding (tested: lower value)”.

With B7, the binding result is given as “no binding (tested: lower value)”.

As to B8, the binding entry was “no binding (tested: lower value)”.

For the molecule B9, the binding entry was “no binding (tested: lower value)”.

As for B10, the binding entry is given as “no binding (tested: lower value)”.

Regarding B11, the binding entry was “no binding (tested: lower value)”.

Consider B12, for which the binding result is “no binding (tested: lower value)”.

Consider B13, for which the binding result is given as “no binding (tested: lower value)”.

On to B14, for which the binding entry was “no binding (tested: lower value)”.

With B15, the binding result was “no binding (tested: lower value)”.

The target in another assay is PTEN_13 (human) (UniProt P60484). Described as above.
As to B16, the binding entry is given as “no binding (tested: lower value)”.

B2: the binding entry is “no binding (tested: lower value)”.

As to B3, the binding result is “no binding (tested: lower value)”.

For B5, the binding entry is recorded as “no binding (tested: lower value)”.

Take B17: the binding entry was “no binding (tested: lower value)”.

B7: the binding entry is reported as “no binding (tested: lower value)”.

In the case of B18, the binding result is given as “no binding (tested: lower value)”.

For B8, the binding entry is listed as “no binding (tested: lower value)”.

In the case of B9, the binding entry is listed as “no binding (tested: lower value)”.

Regarding B10, the binding entry is recorded as “no binding (tested: lower value)”.

Consider B11, for which the binding entry was “no binding (tested: lower value)”.

For the molecule B12, the binding result is listed as “no binding (tested: lower value)”.

As for B19, the binding entry is on record as “no binding (tested: lower value)”.

For the molecule B20, the binding result was “no binding (tested: lower value)”.

For B13, the binding result is given as “no binding (tested: lower value)”.

Turning to B15, the binding result is on record as “no binding (tested: lower value)”.

In a further assay the target is PTEN_11 (human) (UniProt P60484). The assay is described as above.
As to B16, the binding result is “no binding (tested: lower value)”.

Take B1: the binding result was “no binding (tested: lower value)”.

On to B2, for which the binding result is “no binding (tested: lower value)”.

Consider B3, for which the binding entry is listed as “no binding (tested: lower value)”.

Take B4: the binding result is listed as “no binding (tested: lower value)”.

On to B5, for which the binding entry is reported as “no binding (tested: lower value)”.

In the case of B6, the binding result is listed as “no binding (tested: lower value)”.

Turning to B17, the binding result is on record as “no binding (tested: lower value)”.

Turning to B7, the binding entry is reported as “no binding (tested: lower value)”.

For the molecule B18, the binding result was “no binding (tested: lower value)”.

With B8, the binding result is “no binding (tested: lower value)”.

Consider B9, for which the binding entry is reported as “no binding (tested: lower value)”.

As for B10, the binding result is reported as “no binding (tested: lower value)”.

Take B11: the binding entry is reported as “no binding (tested: lower value)”.

In the case of B12, the binding result is “no binding (tested: lower value)”.

Consider B19, for which the binding entry is listed as “no binding (tested: lower value)”.

For B20, the binding entry is recorded as “no binding (tested: lower value)”.

As for B13, the binding result is recorded as “no binding (tested: lower value)”.

As to B14, the binding result was “no binding (tested: lower value)”.

Consider B15, for which the binding result was “no binding (tested: lower value)”.

The target in a further assay is PTEN_KR (human) (UniProt P60484). The description is as above.
As to B16, the binding entry is reported as “no binding (tested: lower value)”.

Consider B1, for which the binding result is on record as “no binding (tested: lower value)”.

With B2, the binding entry is recorded as “no binding (tested: lower value)”.

Turning to B3, the binding result is recorded as “no binding (tested: lower value)”.

With B4, the binding entry is “no binding (tested: lower value)”.

B5: the binding entry is given as “no binding (tested: lower value)”.

B6: the binding result is on record as “no binding (tested: lower value)”.

Turning to B17, the binding entry is given as “no binding (tested: lower value)”.

On to B7, for which the binding result was “no binding (tested: lower value)”.

Take B18: the binding result is on record as “no binding (tested: lower value)”.

With B8, the binding entry is recorded as “no binding (tested: lower value)”.

On to B9, for which the binding entry is given as “no binding (tested: lower value)”.

Consider B10, for which the binding entry is “no binding (tested: lower value)”.

For B11, the binding entry is “no binding (tested: lower value)”.

As to B12, the binding result is “no binding (tested: lower value)”.

On to B19, for which the binding result is recorded as “no binding (tested: lower value)”.

On to B20, for which the binding result is listed as “no binding (tested: lower value)”.

Turning to B13, the binding result was “no binding (tested: lower value)”.

On to B14, for which the binding result is reported as “no binding (tested: lower value)”.

B15: the binding entry is recorded as “no binding (tested: lower value)”.
